Measurements reported in PubChem BioAssay AID1224828 (NIAID, 2016)
The deposit covers about 17,000 reagents; shown is an unselected part. In the full data, 762 (4.5%) are marked active. 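Active calls include both raised and lowered p65 entry, mostly lowered; wells with fewer than 50 cells lack a z-score.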 Raw values vary from plate to plate and are shown uncorrected. Unmarked entries are inactive. Reagent sequences are not shown.

Screen: 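Regulators linking TLR4 signalling to p65 nuclear translocation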 (primary screen)
Cell system: mouse RAW264.7 G9 macrophage reporter cells (GFP-p65, Tnf promoter-mCherry)
Reagents: siRNA pool against mouse genes, 100 nM
Time to read-out: 2 days siRNA transfection, then 40 min LPS before fixation
Treatment: LPS (Salmonella minnesota R595) at 10 ng/ml
Detection: 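Imaged p65 nuclear translocation ratio, normalised to the plate median, converted to robust z-scores and averaged across two replicates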
Scale: p65 translocation robust z-score: higher = more nuclear NF-kappaB p65 after LPS than the plate median; nuclear/cytoplasmic p65 ratio: higher = more nuclear NF-kappaB p65
Hit rule: 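Called active when z exceeds 3.3 or falls under -1.56 (median of Tlr4 controls), giving activity score of at least 50; no calls for control wells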
Meaning of the calls: active = hit (p65 shift raised or lowered); inactive = no clear change

target gene | p65 translocation robust z-score | nuclear/cytoplasmic p65 ratio, rep 1 | nuclear/cytoplasmic p65 ratio, rep 2 | low cell count flag
Gsdmd | -0.2 | 1.33 | 1.44 | enough cells to score
Mbip | 0.48 | 1.72 | 1.47 | enough cells to score
Ccl21b | -0.92 | 1.57 | 1.51 | enough cells to score
Tmem38a | 0.4 | 1.67 | 1.54 | enough cells to score
H2-Q1 | 0.31 | 1.47 | 1.42 | enough cells to score
Lonp2 | – | 1.07 | 1.11 | fewer than 50 cells per well; well left out of scoring
Fank1 | – | 1.32 | 1.59 | fewer than 50 cells per well; well left out of scoring
Fmod | -0.09 | 1.42 | 1.38 | enough cells to score
B230220N19Rik | 0.82 | 1.53 | 1.82 | enough cells to score
Frrs1 | -0.13 | 1.48 | 1.14 | enough cells to score
Uck2 | 1.43 | 1.85 | 1.62 | enough cells to score
Tef | 0.9 | 1.65 | 1.64 | enough cells to score
Gtsf2 | – | 1.29 | 1.4 | fewer than 50 cells per well; well left out of scoring
Mrps17 | -1.18 | 1.8 | 1.24 | enough cells to score
Ulk4 | -1.14 | 1.27 | 1.33 | enough cells to score
Col5a2 | -1.03 | 1.33 | 1.25 | enough cells to score
Slc14a2 | 0.01 | 1.43 | 1.61 | enough cells to score
Smim48 | -2.15 (active) | 1.06 | 1.21 | enough cells to score
Or8k18 | -0.05 | 1.7 | 1.53 | enough cells to score
Or2v1 | – | 1.5 | 0.855 | fewer than 50 cells per well; well left out of scoring
Slco3a1 | – | 1.38 | 1.27 | fewer than 50 cells per well; well left out of scoring
Pltp | – | 1.3 | 1.38 | fewer than 50 cells per well; well left out of scoring
Ramp1 | 0.31 | 1.45 | 1.74 | enough cells to score
Zbtb7c | 0.06 | 1.4 | 1.59 | enough cells to score
Tmem115 | -1.04 | 1.46 | 1.46 | enough cells to score
4933428P19Rik | -0.11 | 1.35 | 1.45 | enough cells to score
D830013H23Rik | -1.65 (active) | 1.35 | 1.29 | enough cells to score
Adamts3 | -0.18 | 1.36 | 1.41 | enough cells to score
Mtor | – | 1.45 | 1.48 | fewer than 50 cells per well; well left out of scoring
Ankar | – | 1.36 | 1.25 | fewer than 50 cells per well; well left out of scoring
Ifit3 | -0.42 | 1.32 | 1.34 | enough cells to score
Tesk2 | -1.42 | 1.31 | 1.33 | enough cells to score
Or11q2 | -0.11 | 1.57 | 1.43 | enough cells to score
5330431K02Rik | – | 1.32 | 1.36 | fewer than 50 cells per well; well left out of scoring
S1pr5 | – | 1.2 | 1.56 | fewer than 50 cells per well; well left out of scoring
Cdc27 | – | 1.4 | 1.73 | fewer than 50 cells per well; well left out of scoring
Fasn | – | 1.24 | 1.14 | fewer than 50 cells per well; well left out of scoring
Srf | -1.21 | 1.32 | 1.44 | enough cells to score
Tex19.1 | – | 1.42 | 1.27 | fewer than 50 cells per well; well left out of scoring
Or6c38 | – | 1.35 | 1.16 | fewer than 50 cells per well; well left out of scoring
Bcap29 | -0.52 | 1.48 | 1.59 | enough cells to score
Or8b50 | – | 1.54 | 1.13 | fewer than 50 cells per well; well left out of scoring
Rnf38 | – | 1.65 | 1.16 | fewer than 50 cells per well; well left out of scoring
Rps6ka3 | 0.81 | 1.85 | 1.45 | enough cells to score
Prf1 | -0.71 | 1.43 | 1.29 | enough cells to score
Dcbld2 | -0.37 | 1.54 | 1.47 | enough cells to score
Bbs5 | – | 1.37 | 1.6 | fewer than 50 cells per well; well left out of scoring
Cnst | – | 1.6 | 1.69 | fewer than 50 cells per well; well left out of scoring
Nme6 | -0.05 | 1.46 | 1.37 | enough cells to score
Prss58 | -0.11 | 1.21 | 1.41 | enough cells to score
Rbm43 | 1.42 | 1.7 | 1.68 | enough cells to score
Zfp775 | – | 0.914 | 0 | fewer than 50 cells per well; well left out of scoring
Dusp13b | -1.67 (active) | 1.26 | 1.16 | enough cells to score
Nphs2 | -1.15 | 1.33 | 1.22 | enough cells to score
Rimoc1 | 0.08 | 1.5 | 1.64 | enough cells to score
Ddr2 | -0.16 | 1.56 | 1.44 | enough cells to score
Twsg1 | -0.83 | 1.28 | 1.4 | enough cells to score
Prok2 | 0.81 | 1.47 | 1.32 | enough cells to score
Msh3 | 1.56 | 1.58 | 1.6 | enough cells to score

Laid out differently: entries from further up
{"target gene": "Gtsf2", "nuclear/cytoplasmic p65 ratio, rep 1": 1.29, "nuclear/cytoplasmic p65 ratio, rep 2": 1.4, "low cell count flag": "fewer than 50 cells per well; well left out of scoring"}
{"target gene": "Mrps17", "p65 translocation robust z-score": -1.18, "nuclear/cytoplasmic p65 ratio, rep 1": 1.8, "nuclear/cytoplasmic p65 ratio, rep 2": 1.24, "low cell count flag": "enough cells to score"}
{"target gene": "Ulk4", "p65 translocation robust z-score": -1.14, "nuclear/cytoplasmic p65 ratio, rep 1": 1.27, "nuclear/cytoplasmic p65 ratio, rep 2": 1.33, "low cell count flag": "enough cells to score"}
{"target gene": "Col5a2", "p65 translocation robust z-score": -1.03, "nuclear/cytoplasmic p65 ratio, rep 1": 1.33, "nuclear/cytoplasmic p65 ratio, rep 2": 1.25, "low cell count flag": "enough cells to score"}
{"target gene": "Slc14a2", "p65 translocation robust z-score": 0.01, "nuclear/cytoplasmic p65 ratio, rep 1": 1.43, "nuclear/cytoplasmic p65 ratio, rep 2": 1.61, "low cell count flag": "enough cells to score"}
{"target gene": "Smim48", "p65 translocation robust z-score": "-2.15 (active)", "nuclear/cytoplasmic p65 ratio, rep 1": 1.06, "nuclear/cytoplasmic p65 ratio, rep 2": 1.21, "low cell count flag": "enough cells to score"}
{"target gene": "Or8k18", "p65 translocation robust z-score": -0.05, "nuclear/cytoplasmic p65 ratio, rep 1": 1.7, "nuclear/cytoplasmic p65 ratio, rep 2": 1.53, "low cell count flag": "enough cells to score"}
{"target gene": "Or2v1", "nuclear/cytoplasmic p65 ratio, rep 1": 1.5, "nuclear/cytoplasmic p65 ratio, rep 2": 0.855, "low cell count flag": "fewer than 50 cells per well; well left out of scoring"}
